Source: WO2010064456A1
Residue numbers refer to the chain shown, from its start. These are yes or no findings as the source states them, for the method shown. Some binding calls cover weakened binding; strength is not graded here. Values belong to the binder of their own block, whether it stands above or below them.

Experiments:
[1] = molecular target: T1, rhNR10 (human) (UniProt Q8NI17); experiment: SPR (Biacore T100), antibody captured on Protein A, rhNR10 as analyte
T1 sequence (looked up): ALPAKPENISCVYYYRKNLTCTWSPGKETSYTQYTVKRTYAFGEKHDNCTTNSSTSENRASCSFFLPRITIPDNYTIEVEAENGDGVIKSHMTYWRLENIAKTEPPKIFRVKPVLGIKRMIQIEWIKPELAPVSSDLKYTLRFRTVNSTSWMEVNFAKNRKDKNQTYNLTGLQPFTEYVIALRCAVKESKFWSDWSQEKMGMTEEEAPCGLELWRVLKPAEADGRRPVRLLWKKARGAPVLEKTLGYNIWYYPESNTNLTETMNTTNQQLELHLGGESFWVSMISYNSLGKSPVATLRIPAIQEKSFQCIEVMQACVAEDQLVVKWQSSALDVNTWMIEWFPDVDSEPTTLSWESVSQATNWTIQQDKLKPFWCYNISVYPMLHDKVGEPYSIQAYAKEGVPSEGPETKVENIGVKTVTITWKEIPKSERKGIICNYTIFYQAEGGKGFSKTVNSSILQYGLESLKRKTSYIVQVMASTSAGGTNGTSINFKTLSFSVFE

[2] = molecular target: T1, rhNR10 (human); experiment: SPR (Biacore), method of Example 7 (Reference Example 10)

B3: H42L17 (H chain H42-M58, L chain L17) (antibody, V domains shown)
VH: QVQLVQSGAEVKKPGASVKVSCKASGYTFTGYVLNWVRQAPGQGLEWMGLINPYNGGTDYNPQFQDRVTITADKSTSTAYMELSSLRSEDTAVYYCARDGYDDGPYTLETWGQGTLVTVSS
VL: DIQMTQSPSSLSASVGDRVTITCQASEDIYSFVAWYQQKPGKAPKLLIYNAQTEAQGVPSRFSGSGSGTDFTLTISSLQPEDFATYYCQHHYDSPLTFGGGTKVEIKR
binding [1]: binds

B4: H0L17 (H chain H0-M58, L chain L17) (antibody, V domains shown)
VH: QVQLVQSGAEVKKPGASVKVSCKASGYTFTGYIMNWVRQAPGQGLEWMGLINPYNGGTSYNQKFKGRVTITADESTSTAYMELSSLRSEDTAVYYCARDGYDDGPYTMDYWGQGTLVTVSS
VL: B3 VL
binding [1]: binds

B5: H92L17 (H chain H92-M58, L chain L17) (antibody, V domains shown)
VH: B3 VH with V33A, L34M, D66G
VL: B3 VL
binding [1]: binds

B7: H34L17 (H chain H34-M58, L chain L17) (antibody, V domains shown)
VH: B3 VH with V33A, L34M, K74E
VL: B3 VL
binding [1]: binds

B10: H78L17 (H chain H78-M58, L chain L17) (antibody, V domains shown)
VH: B3 VH with V33I, L34M, D66G
VL: B3 VL
binding [1]: binds

B15: H98L50 (H chain H98-M58, L chain L50) (antibody, V domains shown)
VH: B3 VH with V33I, L34M, D59S, P62Q
VL: B3 VL with V33L
binding [1]: binds

B16: H19L12 (H chain H19-M58, L chain L12) (antibody, V domains shown)
VH: B4 VH with I33A, S59D, Q62P, K63Q, K65Q, G66D
VL: B3 VL with A25T
binding [1]: binds

Results, then the binder that gave them:

binding [1]: binds
B1: Hp3Lp15 (H chain Hp3-SKSC, L chain Lp15) (antibody, V domains shown)
VH: B4 VH with K63Q, K65Q, G66D
VL: B3 VL with A25T, V33L, D93E

binding [1]: binds
B2: H97L50 (H chain H97-M58, L chain L50) (antibody, V domains shown)
VH: B3 VH with V33I, L34M, D59S, P62Q, K74E
VL: B3 VL with V33L

binding [1]: binds
B6: H57L17 (H chain H57-M58, L chain L17) (antibody, V domains shown)
VH: B3 VH with V33I, L34M, D66G, K74E
VL: B3 VL

binding [2]: binds
B8: H17L11 (H chain H17-M58, L chain L11) (antibody, V domains shown)
VH: B3 VH with K74E, L108M, E109D, T110Y
VL: B3 VL with A25T, S31R

binding [1]: binds
B9: H46L17 (H chain H46-M58, L chain L17) (antibody, V domains shown)
VH: B3 VH with V33A, L34M
VL: B3 VL

binding [1]: binds
B11: Ha401La402 (H chain Ha401-SKSC, L chain La402) (antibody, V domains shown)
VH: B4 VH with I33V, M34I, S59D
VL: B3 VL with A25T, D28N, S31R, Q52K, E54L, Q56K

binding [1]: binds
B12: H71L17 (H chain H71-M58, L chain L17) (antibody, V domains shown)
VH: B3 VH with V33A, L34M, D66G, K74E
VL: B3 VL

binding [1]: binds
B13: H44L17 (H chain H44-M58, L chain L17) (antibody, V domains shown)
VH: B3 VH with V33I, L34M
VL: B3 VL

binding [1]: binds
B14: H28L17 (H chain H28-M58, L chain L17) (antibody, V domains shown)
VH: B3 VH with K74E
VL: B3 VL

binding [1]: binds
B17: H30L17 (H chain H30-M58, L chain L17) (antibody, V domains shown)
VH: B3 VH with V33I, L34M, K74E
VL: B3 VL
